# Results deposited as PubChem BioAssay AID504764 (Drosophila RNAi Screening Center, 2011)
# Screen: 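Genes whose knock-down alters Notch-dependent transcription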 (primary screen)
# System: Drosophila Kc167 cells
# Reagent: long dsRNA against Drosophila genes
# Time to read-out: about 5 days (4 days dsRNA, then 24 h after transfection)
# Conditions: transfection of constitutively active membrane-tethered Notch lacking the extracellular domain, read 24 h later
# Detection: 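Light from a Notch-responsive E(spl)m3 luciferase reporter under active Notch, with control-promoter and no-Notch reporter wells to normalise; raw counts from paired wells a and b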
# Reading the numbers: induced reporter light, run 1, well a and induced reporter light, run 1, well b: higher = more light from the Notch target reporter with active Notch; control promoter light, run 1, well a and control promoter light, run 1, well b: higher = more light from the viral control promoter (cell number, transfection, viability); uninduced reporter light, run 1, well a: higher = more light from the Notch target reporter without active Notch
# Rule for the call: 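Hit if the duplicate-averaged log2 ratio of induced to control-promoter light gives a plate-wise z beyond ±2, or induced to uninduced beyond ±1.8; weak-control or discordant-duplicate wells dropped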
# Meaning of the calls: active = modifier hit (raised or lowered Notch signal); inactive = not a hit
# In all, the deposit lists about 22,000 reagents; this is an unselected part of those with a known target gene and a result. Of all reagents, 403 (1.9%) are marked active. 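Unnormalised raw counts per well; ratio z-scores behind the hit calls and whether each hit raises or lowers signal are not deposited.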 A plus sign joins genes that one reagent is predicted to hit. The record does not give: the amount of reagent.
gene,dsRNA,"induced reporter light, run 1, well a","induced reporter light, run 1, well b","control promoter light, run 1, well a","control promoter light, run 1, well b","uninduced reporter light, run 1, well a",activity call
CG31999,DRSC17131,1.10e5,1.00e5,1.92e5,1.73e5,9075,inactive
CG31999,DRSC17133,1.30e5,1.19e5,1.70e5,2.32e5,10800,inactive
CG15458,DRSC20529,1.16e5,1.20e5,1.05e5,99795,9490,inactive
dpr14 (defective proboscis extension response 14),DRSC17767,2.18e5,1.62e5,2.75e5,2.64e5,14295,inactive
CG4701,DRSC01952,98310,1.14e5,1.23e5,1.15e5,9650,inactive
meep,DRSC07948,1.31e5,1.51e5,1.30e5,1.37e5,9495,inactive
Taf13 (TBP-associated factor 13),DRSC02106,50570,40070,23392,31140,2585,inactive
CG6000,DRSC15938,1.60e5,1.99e5,2.08e5,2.04e5,16235,inactive
CG6403,DRSC16033,1.47e5,1.22e5,1.98e5,2.07e5,13780,inactive
MED23 + CG3700,DRSC04406,1.39e5,1.25e5,1.13e5,1.14e5,11865,inactive
MED23 + CG3700,DRSC04407,1.86e5,1.92e5,1.46e5,1.59e5,14750,inactive
Mal-A6 (Maltase A6),DRSC07233,2.00e5,1.56e5,1.84e5,2.09e5,14030,inactive
CG31643,DRSC00906,1.41e5,1.17e5,1.94e5,1.50e5,11685,inactive
Cyp6a19 (Cytochrome P450 6a19),DRSC07379,1.58e5,1.50e5,1.78e5,1.81e5,13120,inactive
CG13223,DRSC06344,1.08e5,1.29e5,1.28e5,1.25e5,11755,inactive
l(2)09851 (lethal (2) 09851),DRSC04858,1.49e5,1.52e5,1.45e5,1.58e5,11600,inactive
CG2082,DRSC12125,1.48e5,1.45e5,92320,82060,9355,inactive
CG3397,DRSC15487,1.22e5,1.62e5,79950,81055,9590,inactive
kay (kayak),DRSC13962,1.80e5,1.73e5,1.34e5,1.53e5,12820,inactive
kay (kayak),DRSC15048,9020,8188,14635,14605,3270,inactive
kay (kayak),DRSC16977,79785,95250,64430,71235,8165,active
SLIRP1 + anox,DRSC20542,1.01e5,1.17e5,90360,69100,9110,inactive
stan (starry night),DRSC05234,14850,12200,16415,19020,8325,inactive
stan (starry night),DRSC07697,1.78e5,1.53e5,2.30e5,2.06e5,15400,inactive
CG10764,DRSC06000,94560,84860,1.35e5,1.49e5,7700,inactive
Calx (Na/Ca-exchange protein),DRSC13457,76945,72320,1.08e5,79790,10935,inactive
Calx (Na/Ca-exchange protein),DRSC13459,50650,46040,56795,60495,7015,inactive
Calx (Na/Ca-exchange protein),DRSC16599,1.70e5,1.85e5,2.23e5,2.18e5,13720,inactive
CG8149,DRSC16391,88180,88190,92880,64275,4540,inactive
Snp (Snipper),DRSC04524,31510,28355,29805,27550,2275,inactive
CG33096,DRSC14440,1.67e5,1.69e5,2.51e5,2.47e5,14505,inactive
Ntf-2r (Nuclear transport factor-2-related),DRSC02019,1.59e5,1.40e5,1.92e5,1.94e5,16985,inactive
Cul3 (Cullin 3),DRSC03537,1.28e5,1.15e5,66010,68495,11085,inactive
Cul3 (Cullin 3),DRSC21525,,,,,,inactive
